The text below walks through data of publication PMC7710697.

Amino acid sequences for entries named in this document (tags omitted).
UniProt Q9GZV5: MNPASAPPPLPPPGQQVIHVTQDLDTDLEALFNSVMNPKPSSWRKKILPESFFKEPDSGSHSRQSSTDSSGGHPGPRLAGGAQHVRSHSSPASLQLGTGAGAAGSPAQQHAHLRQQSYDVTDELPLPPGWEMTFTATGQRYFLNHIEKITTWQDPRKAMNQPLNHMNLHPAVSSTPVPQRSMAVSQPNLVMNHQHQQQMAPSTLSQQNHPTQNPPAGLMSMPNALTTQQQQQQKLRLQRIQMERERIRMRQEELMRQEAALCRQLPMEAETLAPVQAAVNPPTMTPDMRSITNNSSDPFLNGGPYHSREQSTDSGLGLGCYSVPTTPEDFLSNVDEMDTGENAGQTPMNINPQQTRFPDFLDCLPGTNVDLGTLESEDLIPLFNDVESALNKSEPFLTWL

For the experiment, the target named is T1, SKIL (UniProt P12757).
T1 sequence: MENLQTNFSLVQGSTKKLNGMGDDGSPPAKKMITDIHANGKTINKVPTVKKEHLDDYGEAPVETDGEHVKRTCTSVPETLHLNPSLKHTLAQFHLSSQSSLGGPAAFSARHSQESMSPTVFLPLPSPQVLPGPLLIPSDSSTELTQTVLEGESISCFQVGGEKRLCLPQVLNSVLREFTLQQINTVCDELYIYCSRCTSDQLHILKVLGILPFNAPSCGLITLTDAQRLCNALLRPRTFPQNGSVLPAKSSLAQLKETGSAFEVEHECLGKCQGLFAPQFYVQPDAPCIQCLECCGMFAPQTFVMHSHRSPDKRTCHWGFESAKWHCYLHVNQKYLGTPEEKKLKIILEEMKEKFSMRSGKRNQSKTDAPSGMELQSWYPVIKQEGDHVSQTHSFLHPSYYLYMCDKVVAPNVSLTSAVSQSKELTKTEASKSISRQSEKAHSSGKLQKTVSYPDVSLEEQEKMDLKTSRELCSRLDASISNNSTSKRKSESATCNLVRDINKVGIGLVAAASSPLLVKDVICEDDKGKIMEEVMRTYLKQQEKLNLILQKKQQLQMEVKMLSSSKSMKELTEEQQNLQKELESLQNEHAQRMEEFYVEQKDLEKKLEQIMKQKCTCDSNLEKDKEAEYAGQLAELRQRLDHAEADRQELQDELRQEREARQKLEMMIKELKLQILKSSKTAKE
Nature of the experiment: co-IP; anti-SKIL antibody on protein A-Sepharose beads precipitates endogenous SKIL from cell lysates; high-salt lysis buffer (420 mM NaCl, 50 mM HEPES-KOH pH 7.8, 5 mM EDTA, 0.1% NP-40, 3 mM dithiothreitol); precipitate analysed by western blot. Background: Immunoblotting shows a protein as a band on a membrane.

These are yes or no findings as the source states them, for the method shown. Binding seen in cells or lysates may run through a third protein. Some results given as binding are weak or reduced against the parent protein; the word gives no strength.

On to TAZ (from UniProt Q9GZV5 1-400), for which the binding entry is recorded as “no binding”.

B1: Salvador (protein, UniProt Q9H4B6 1-383)
chain: MLSRKKTKNEVSKPAEVQGKYVKKETSPLLRNLMPSFIRHGPTIPRRTDICLPDSSPNAFSTSGDVVSRNQSFLRTPIQRTPHEIMRRESNRLSAPSYLARSLADVPREYGSSQSFVTEVSFAVENGDSGSRYYYSDNFFDGQRKRPLGDRAHEDYRYYEYNHDLFQRMPQNQGRHASGIGRVAATSLGNLTNHGSEDLPLPPGWSVDWTMRGRKYYIDHNTNTTHWSHPLEREGLPPGWERVESSEFGTYYVDHTNKKAQYRHPCAPSVPRYDQPPPVTYQPQQTERNQSLLVPANPYHTAEIPDWLQVYARAPVKYDHILKWELFQLADLDTYQGMLKLLFMKELEQIVKMYEAYRQALLTELENRKQRQQWYAQQHGKNF
Turning to B1, the binding result is reported as “binds”.
